Measured values as given in publication PMC7819943, “Rice protein-binding microarrays: a tool to detect cis-acting elements near promoter regions in rice”.
Some of the results follow.

Target: T1, OsSMF1 (Oryza sativa, UniProt Q6ZLB0 1-436)
T1 sequence: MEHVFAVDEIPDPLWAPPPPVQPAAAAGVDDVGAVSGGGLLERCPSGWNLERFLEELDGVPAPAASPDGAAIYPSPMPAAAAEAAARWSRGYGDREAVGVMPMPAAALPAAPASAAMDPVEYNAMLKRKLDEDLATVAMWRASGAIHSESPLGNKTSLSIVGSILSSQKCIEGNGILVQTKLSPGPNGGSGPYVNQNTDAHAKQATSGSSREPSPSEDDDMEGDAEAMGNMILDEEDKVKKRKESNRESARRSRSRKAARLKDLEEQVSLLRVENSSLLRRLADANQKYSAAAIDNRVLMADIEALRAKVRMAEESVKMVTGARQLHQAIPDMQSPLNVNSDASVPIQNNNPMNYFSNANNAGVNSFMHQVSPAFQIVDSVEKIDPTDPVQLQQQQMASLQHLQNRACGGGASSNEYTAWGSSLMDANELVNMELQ
Experiment: protein-binding microarray (RPBM); PBS, 2% BSA, 51.3 ng/ul salmon testes DNA, 50 uM zinc acetate, 200 nM TF, 25 C, 1 h; high values mean tight binding
Conditions: protein: recombinant; tags: N-terminal polyhistidine and DsRed monomer fusion (pET32a); chain copies: 2; label: CyDye5-dUTP incorporated in the synthesized complementary strand; 3' TTTTT single-stranded linker to array surface; dsDNA, one strand shown
How it was run: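 The binding signal is fluorescence intensity per array feature (arbitrary units). Readings came from an Axon 4000B scanner after a washed, 2% BSA-blocked, double-stranded custom Agilent array had been incubated for 1 h at 25 °C with 200 nM protein and 50 µM zinc acetate. The protein was a Ni–NTA-purified transcription factor fused N-terminally to polyhistidine and DsRed, expressed in E. coli BL21-CodonPlus.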

| Sequence | binding signal |
| --- | --- |
| ACTTCCATACTGGTGACGTCGCTGTTCCCGGACTACTACGCGGAGTCACCTAGTGCAG | 3870 fluorescence intensity (a.u.) |
| GCTTGCTGGGACTCTTGTGGTCGACACCTGGCAACATATTCGGAGTCACCTAGTGCAG | 6760 fluorescence intensity (a.u.) |
| AGATCTCCGTTCAAACATTCTGACTAGGATTGTGCACATTCGGAGTCACCTAGTGCAG | 8800 fluorescence intensity (a.u.) |
| AAATGGCATGATTTTATTGCGGGGATTATTTATACATTTGCGGAGTCACCTAGTGCAG | 12300 fluorescence intensity (a.u.) |
| CAGGCTACAGGGCATTTGTGTCATTTTGCAAGAAGGCATACGGAGTCACCTAGTGCAG | 3380 fluorescence intensity (a.u.) |
| ATGCATACGTGTGTCCCGTCTCTGCCTGCTGCTCTGTTCGCGGAGTCACCTAGTGCAG | 7410 fluorescence intensity (a.u.) |
| TAAATGGATCCCATTTGTCAGTCAAAATGATGCCACGTCACGGAGTCACCTAGTGCAG | 26000 fluorescence intensity (a.u.) |
| CGTCCAATAGGGTTCGAGGACGTCAGCAAGCCGGGCGTCGCGGAGTCACCTAGTGCAG | 11900 fluorescence intensity (a.u.) |
| TGCCGCCCGTCTCCGACGTCAGCCGGTTGCACCAATGCCACGGAGTCACCTAGTGCAG | 5580 fluorescence intensity (a.u.) |
| TGACAACAACAAGCATATATTCTGATTTGGAGTCACAAGACGGAGTCACCTAGTGCAG | 11600 fluorescence intensity (a.u.) |
| AAGAAGGGCGCGCCCACGCGTGCGCACGTCGTCGTTGGCGCGGAGTCACCTAGTGCAG | 6000 fluorescence intensity (a.u.) |
| CACACGACGCCGCCGCCGCCACGCGCGTCACGAAAACCCTCGGAGTCACCTAGTGCAG | 3160 fluorescence intensity (a.u.) |
| ATCTTCACTGCATATCTACGTGGCATCCGGCTCGTAATATCGGAGTCACCTAGTGCAG | 8700 fluorescence intensity (a.u.) |
| CATCGATGTGTTTATTTTGAATGTTATATGAATGCCACCTCGGAGTCACCTAGTGCAG | 3390 fluorescence intensity (a.u.) |
| CGGCGCTCACAAATTGTCGTCGTCACGAAATCGCAACCCTCGGAGTCACCTAGTGCAG | 3500 fluorescence intensity (a.u.) |
| ACCCTGCCACGTCATATCAAACGGCACATATCTCACAATCCGGAGTCACCTAGTGCAG | 18800 fluorescence intensity (a.u.) |
| TTTGGTAGGGATGTTGTGTTTTCTTTGCGAACACCGGTGACGGAGTCACCTAGTGCAG | 3380 fluorescence intensity (a.u.) |
| CAGGGAGCTAGGCCGCCAGCGTGGGCAAGCACGCGCCCGCCGGAGTCACCTAGTGCAG | 3400 fluorescence intensity (a.u.) |
| GACCGTGCCGTCGTAATCACACTGCCCTGCTGACTAATCTCGGAGTCACCTAGTGCAG | 10000 fluorescence intensity (a.u.) |
| CTTTGTTTGTTCCATGTATAGGTGACTCGATGTCTCGGGACGGAGTCACCTAGTGCAG | 3480 fluorescence intensity (a.u.) |
| TGAAATCAGGTTTGAAATAAGTTCTTTAGGGTGCTTATTTCGGAGTCACCTAGTGCAG | 23000 fluorescence intensity (a.u.) |
| TTCTTCGAGATCACCATGATTGAACGATCTCCGAGCTGCTCGGAGTCACCTAGTGCAG | 27800 fluorescence intensity (a.u.) |
| GAGGAGGGAGGCGACGTCGCCCGTCTCTCCGCGTCGGCTCCGGAGTCACCTAGTGCAG | 3490 fluorescence intensity (a.u.) |
| GAGTCGTCGCGGTCACTCGTCCGTATCTGCCTCGGTGGGGCGGAGTCACCTAGTGCAG | 3920 fluorescence intensity (a.u.) |
| CCGGAAGCTCCCGTTCCAGCGGCTGGTGCGGGAGATCGCGCGGAGTCACCTAGTGCAG | 30900 fluorescence intensity (a.u.) |
| CCAAGATTTGTGCTATGTGACGTGGAGGGTGGAGATCATCCGGAGTCACCTAGTGCAG | 13700 fluorescence intensity (a.u.) |
| GCCCATCCATCGCATTCGCGTTCGCAGGCACAAACCAAACCGGAGTCACCTAGTGCAG | 27800 fluorescence intensity (a.u.) |

| Sequence | binding signal |
| --- | --- |
| CTTTGTATCTGACCTACTGTTGTTCTGACCAGTCTTGGCCCGGAGTCACCTAGTGCAG | 3720 fluorescence intensity (a.u.) |
| ACCATTGGCCTCGCCGCTCACGCGCACCAGCGTCCCACACCGGAGTCACCTAGTGCAG | 31000 fluorescence intensity (a.u.) |
| ACGTCCACCTCCGCATCGGCCCCTACGTCTGCGCCGAGTGCGGAGTCACCTAGTGCAG | 3980 fluorescence intensity (a.u.) |
| TAAATGCTACAGTAACCCACATGTGCTAATGATGGATTAACGGAGTCACCTAGTGCAG | 29600 fluorescence intensity (a.u.) |
| AACGTCGTCGCAGGTGTTTGCTGCGCGCGACGTAGCCATCCGGAGTCACCTAGTGCAG | 32700 fluorescence intensity (a.u.) |
| AACGGTGCCTTCTGTTGCTGACCCGATCTGGCGACGCAACCGGAGTCACCTAGTGCAG | 3850 fluorescence intensity (a.u.) |
| CATGGTGATGATGGCGGCGGGCGTCCGTCAGCGCCCGCACCGGAGTCACCTAGTGCAG | 5860 fluorescence intensity (a.u.) |
| TTTAACGGCGGTTGACTAACGGTTGACTAACGTCGATTGCCGGAGTCACCTAGTGCAG | 3380 fluorescence intensity (a.u.) |
| CCTCCTGCTCAGAGGCAGTTCGGTGACGAGCGGGTTGGAGCGGAGTCACCTAGTGCAG | 24400 fluorescence intensity (a.u.) |
| TGTGATACTGACATGTGGGGCCACGTGGGTCCCATAATTTCGGAGTCACCTAGTGCAG | 7110 fluorescence intensity (a.u.) |
| TTTATTTAGTTTGTCAGACTAACTGGTATTGACACGACTGCGGAGTCACCTAGTGCAG | 4840 fluorescence intensity (a.u.) |
| GCGACGCGAGCGAAGATTTTGATTTTGACCCGCCTCCAACCGGAGTCACCTAGTGCAG | 19500 fluorescence intensity (a.u.) |
| TCACTGGCCTCTACATCCTCCAACCACTCCGTCGGCTTCCCGGAGTCACCTAGTGCAG | 19900 fluorescence intensity (a.u.) |
| TTGTACTAATAATAATACAATAAACTAACAATTCAGCGATCGGAGTCACCTAGTGCAG | 3560 fluorescence intensity (a.u.) |
| TTGCCACTCGTTATCTATGACATATGGGTCCTTATGTGTCCGGAGTCACCTAGTGCAG | 3390 fluorescence intensity (a.u.) |
| ATAGAAATGGAGGATGTGGCGGCATCATTGCGCCATGTACCGGAGTCACCTAGTGCAG | 3270 fluorescence intensity (a.u.) |
| GCCGCCATCTCCCATGGCGACGACGTGGACCAACGCCTAACGGAGTCACCTAGTGCAG | 6420 fluorescence intensity (a.u.) |
| TCAATAGTACTTTAAACGTGCCGTGTATGTTTGTCTATTTCGGAGTCACCTAGTGCAG | 4020 fluorescence intensity (a.u.) |
| TCCCGCGCCGGCCGCCGTCACCTCACGCAGGCCCTGTATGCGGAGTCACCTAGTGCAG | 3270 fluorescence intensity (a.u.) |
| GCAGAGGCGGCGAGGCTCGGCTTCTTCTCGAACGGCGCCGCGGAGTCACCTAGTGCAG | 27600 fluorescence intensity (a.u.) |
| TCTCGTCTCCGTCGCCGCCGCCTTCTCCAAATCCCCTTCGCGGAGTCACCTAGTGCAG | 3820 fluorescence intensity (a.u.) |
| CGGAGGGATTCGATTTGGAAGGAATTGGATTCGGAGTTGACGGAGTCACCTAGTGCAG | 33200 fluorescence intensity (a.u.) |
| ATGTACGCGTCACTAAATTTTGTTGCTCCCTGTCGTCACTCGGAGTCACCTAGTGCAG | 9210 fluorescence intensity (a.u.) |
| AGGAAGGGAGAGGCCGGCCTGCTGACGTGGCATCATGACACGGAGTCACCTAGTGCAG | 19900 fluorescence intensity (a.u.) |
| TCCTCGCCAAGCAGCATGGAGGAGAGCCACGCCTTCACCACGGAGTCACCTAGTGCAG | 3810 fluorescence intensity (a.u.) |
| ACGGCCCAGATAAAAGGATGGGACATGATAACCCGGTCTACGGAGTCACCTAGTGCAG | 4060 fluorescence intensity (a.u.) |
| GACGCTGGAGTTCACGCCGACGTGGATCGTGGCGGCGGTGCGGAGTCACCTAGTGCAG | 7560 fluorescence intensity (a.u.) |

Copied from the list.
For binding signal, TCTCGTCTCCGTCGCCGCCGCCTTCTCCAAATCCCCTTCGCGGAGTCACCTAGTGCAG has 3820 fluorescence intensity (a.u.)
For binding signal, CTTTGTATCTGACCTACTGTTGTTCTGACCAGTCTTGGCCCGGAGTCACCTAGTGCAG has 3720 fluorescence intensity (a.u.)
For binding signal, ATAGAAATGGAGGATGTGGCGGCATCATTGCGCCATGTACCGGAGTCACCTAGTGCAG has 3270 fluorescence intensity (a.u.)
